# Test results reported in US8173668B1, “Use of non-peptidic bradykinin receptor agonists to treat ocular hypertension and glaucoma” (Alcon Research, Ltd., priority 2007, dated 2012).
# System: ocular hypertensive eyes of ketamine-sedated cynomolgus monkeys
# Assay: Aqueous humor dynamics (fluorophotometry, tonography) in ketamine-sedated cynomolgus monkeys
# Type: in vivo
# Conditions: Treatment Day, Hypertensive Eye OS; one drop of 30 μl 0.01% the day before; mean ± SD
# Description: Methods used in this Example were described by Yablonski et al. Invest Ophthalmol V is Sci 1987; 28:2076-2082; Hayashi et al. Exp Eye Res 1989; 48:621-625; Mäepea et al. Exp Eye Res 1989; 49:645-663, and as below:
# Twelve female cynomolgus monkeys between the ages of 5 and 8 years were included in the study. All had unilateral laser treatment to the trabecular meshwork of the left eye. Lasering had been done between 2 and 4 years before the study.
# Measurements were made on baseline day and after AL-42205-01 (FR-190997) treatment to both eyes. […] Fifteen hours prior to each study day, IOP1 was measured with a pneumatonometer (Classic 30, Xomed, Jacksonville, Fla.) after topical application of proparacaine HCl, 0.13%. […] The fluorescence of the cornea and anterior chamber were measured in duplicate with a scanning fluorophotometer (Fluorotron, OcuMetrics, Palo Alto, Calif.). […]
# After the fourth set of scans and another IOP measurement (IOP3), an intramuscular injection of acetazolamide (12-20 mg/kg) was administered to reduce IOP by reducing aqueous flow. […] Fluorophotometric outflow facility (Cfl) was calculated as the ratio of the change in aqueous flow to the change in IOP. Uveoscleral outflow (Fus) was calculated by the equation Fus=Fa−Cfl (IOP3−Pev) where Pev is the episcleral venous pressure. […]
smiles,measurement,value
CNC(=O)c1ccc(/C=C/C(=O)NCC(=O)N(C)c2ccc(Cl)c(COc3cccc4c(OCc5ccccn5)cc(C)nc34)c2Cl)cc1 [FR-190997],"ACvol, anterior chamber volume",79.8 ± 9.2 µL
same,"CCT, central cornea thickness",0.48 ± 0.03 mm
